Data taken from publication PMC11425283.
These are yes or no findings as the source states them, for the method shown. In cells and extracts the contact can be indirect. A yes stands for co-enrichment or nearness to the bait. Other partners may have been found.

The chains behind the UniProt entries cited, without tags or fusion partners. Where a name states a change or a piece, a line headed by the entry shows the natural chain unless it says otherwise.
UniProt P09958: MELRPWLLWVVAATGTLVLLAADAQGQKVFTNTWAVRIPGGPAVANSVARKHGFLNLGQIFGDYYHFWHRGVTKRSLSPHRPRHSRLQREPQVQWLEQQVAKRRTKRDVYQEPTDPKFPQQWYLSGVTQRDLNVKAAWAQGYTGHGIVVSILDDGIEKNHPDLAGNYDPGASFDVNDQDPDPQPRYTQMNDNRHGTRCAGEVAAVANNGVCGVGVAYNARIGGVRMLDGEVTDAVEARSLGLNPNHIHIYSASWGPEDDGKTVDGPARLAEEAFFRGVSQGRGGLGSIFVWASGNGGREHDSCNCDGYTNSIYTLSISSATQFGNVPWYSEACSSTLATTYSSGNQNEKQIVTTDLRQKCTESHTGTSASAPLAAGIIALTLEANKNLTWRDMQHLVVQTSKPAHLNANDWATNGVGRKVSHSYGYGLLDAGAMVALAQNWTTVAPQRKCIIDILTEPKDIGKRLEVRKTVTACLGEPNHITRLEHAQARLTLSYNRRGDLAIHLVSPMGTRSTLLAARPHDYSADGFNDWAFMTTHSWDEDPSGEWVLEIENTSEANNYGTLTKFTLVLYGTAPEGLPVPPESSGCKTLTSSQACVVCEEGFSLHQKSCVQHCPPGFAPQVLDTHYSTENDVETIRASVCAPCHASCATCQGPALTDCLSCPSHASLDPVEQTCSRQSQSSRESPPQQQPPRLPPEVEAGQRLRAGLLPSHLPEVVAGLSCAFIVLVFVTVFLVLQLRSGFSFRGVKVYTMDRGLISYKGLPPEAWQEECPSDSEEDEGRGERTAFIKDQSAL

Molecular target: furin (FLAG-tagged, wild type) (human) (UniProt P09958)
Assay: affinity purification with mass spectrometry; furin-FLAG expressed in HEK293T; RIPA lysate; IP with anti-FLAG M2 magnetic beads; SDS-PAGE, Nano LC-MS/MS

binding	Binder
binds	USP19, endogenous (enzyme, UniProt O94966 1-1318) MSGGASATGPRRGPPGLEDTTSKKKQKDRANQESKDGDPRKETGSRYVAQAGLEPLASGDPSASASHAAGITGSRHRTRLFFPSSSGSASTPQEEQTKEGACEDPHDLLATPTPELLLDWRQSAEEVIVKLRVGVGPLQLEDVDAAFTDTDCVVRFAGGQQWGGVFYAEIKSSCAKVQTRKGSLLHLTLPKKVPMLTWPSLLVEADEQLCIPPLNSQTCLLGSEENLAPLAGEKAVPPGNDPVSPAMVRSRNPGKDDCAKEEMAVAADAATLVDEPESMVNLAFVKNDSYEKGPDSVVVHVYVKEICRDTSRVLFREQDFTLIFQTRDGNFLRLHPGCGPHTTFRWQVKLRNLIEPEQCTFCFTASRIDICLRKRQSQRWGGLEAPAARVGGAKVAVPTGPTPLDSTPPGGAPHPLTGQEEARAVEKDKSKARSEDTGLDSVATRTPMEHVTPKPETHLASPKPTCMVPPMPHSPVSGDSVEEEEEEEKKVCLPGFTGLVNLGNTCFMNSVIQSLSNTRELRDFFHDRSFEAEINYNNPLGTGGRLAIGFAVLLRALWKGTHHAFQPSKLKAIVASKASQFTGYAQHDAQEFMAFLLDGLHEDLNRIQNKPYTETVDSDGRPDEVVAEEAWQRHKMRNDSFIVDLFQGQYKSKLVCPVCAKVSITFDPFLYLPVPLPQKQKVLPVFYFAREPHSKPIKFLVSVSKENSTASEVLDSLSQSVHVKPENLRLAEVIKNRFHRVFLPSHSLDTVSPSDTLLCFELLSSELAKERVVVLEVQQRPQVPSVPISKCAACQRKQQSEDEKLKRCTRCYRVGYCNQLCQKTHWPDHKGLCRPENIGYPFLVSVPASRLTYARLAQLLEGYARYSVSVFQPPFQPGRMALESQSPGCTTLLSTGSLEAGDSERDPIQPPELQLVTPMAEGDTGLPRVWAAPDRGPVPSTSGISSEMLASGPIEVGSLPAGERVSRPEAAVPGYQHPSEAMNAHTPQFFIYKIDSSNREQRLEDKGDTPLELGDDCSLALVWRNNERLQEFVLVASKELECAEDPGSAGEAARAGHFTLDQCLNLFTRPEVLAPEEAWYCPQCKQHREASKQLLLWRLPNVLIVQLKRFSFRSFIWRDKINDLVEFPVRNLDLSKFCIGQKEEQLPSYDLYAVINHYGGMIGGHYTACARLPNDRSSQRSDVGWRLFDDSTVTTVDESQVVTRYAYVLFYRRRNSPVERPPRAGHSEHHPDLGPAAEAAASQASRIWQELEAEEEPVPEGSGPLGPWGPQDWVGPLPRGPTTPDEGCLRYFVLGTVAALVALVLNVFYPLVSQSRWR
binds	USP33, endogenous (enzyme, UniProt Q8TEY7 1-942) MTGSNSHITILTLKVLPHFESLGKQEKIPNKMSAFRNHCPHLDSVGEITKEDLIQKSLGTCQDCKVQGPNLWACLENRCSYVGCGESQVDHSTIHSQETKHYLTVNLTTLRVWCYACSKEVFLDRKLGTQPSLPHVRQPHQIQENSVQDFKIPSNTTLKTPLVAVFDDLDIEADEEDELRARGLTGLKNIGNTCYMNAALQALSNCPPLTQFFLDCGGLARTDKKPAICKSYLKLMTELWHKSRPGSVVPTTLFQGIKTVNPTFRGYSQQDAQEFLRCLMDLLHEELKEQVMEVEEDPQTITTEETMEEDKSQSDVDFQSCESCSNSDRAENENGSRCFSEDNNETTMLIQDDENNSEMSKDWQKEKMCNKINKVNSEGEFDKDRDSISETVDLNNQETVKVQIHSRASEYITDVHSNDLSTPQILPSNEGVNPRLSASPPKSGNLWPGLAPPHKKAQSASPKRKKQHKKYRSVISDIFDGTIISSVQCLTCDRVSVTLETFQDLSLPIPGKEDLAKLHSSSHPTSIVKAGSCGEAYAPQGWIAFFMEYVKRFVVSCVPSWFWGPVVTLQDCLAAFFARDELKGDNMYSCEKCKKLRNGVKFCKVQNFPEILCIHLKRFRHELMFSTKISTHVSFPLEGLDLQPFLAKDSPAQIVTYDLLSVICHHGTASSGHYIAYCRNNLNNLWYEFDDQSVTEVSESTVQNAEAYVLFYRKSSEEAQKERRRISNLLNIMEPSLLQFYISRQWLNKFKTFAEPGPISNNDFLCIHGGVPPRKAGYIEDLVLMLPQNIWDNLYSRYGGGPAVNHLYICHTCQIEAEKIEKRRKTELEIFIRLNRAFQKEDSPATFYCISMQWFREWESFVKGKDGDPPGPIDNTKIAVTKCGNVMLRQGADSGQISEETWNFLQSIYGGGPEVILRPPVVHVDPDILQAEEKIEVETRSL
